Bridges are numbered along the chain shown (N, C = ends). [ ]: non-standard residue; d: D form. dPhe(4-Br) = N[C@H](Cc1ccc(Br)cc1)C(=O)O; 1Nal = N[C@@H](Cc1cccc2ccccc12)C(=O)O; 2Nal = N[C@@H](Cc1ccc2ccccc2c1)C(=O)O; d2Nal = N[C@H](Cc1ccc2ccccc2c1)C(=O)O; Aib = CC(C)(N)C(=O)O

This data set is described as follows: general procedure: Fmoc solid-phase peptide synthesis; Rink Amide MBHA resin (Novabiochem, 0.66 mmol/g); Wang resin if C-terminal OH; HBTU/HOBT in DMF. The note with it: whole synthesis, analytical HPLC, scale of the general procedure 1.00 mmol, 0.3 mmol.
As for “Ac-CEH[d2Nal]RWACPPKD-NH2 (disulfide 1-8)”, the “purity (crude or final not stated)” value is recorded as 99.1%. To “Ac-CEH[d2Nal]R[1Nal]ACPPKD-NH2 (disulfide 1-8)” belongs 99.9%; to “Ac-CEH[d2Nal]R[2Nal]ACPPKD-NH2 (disulfide 1-8)”, 98.9%; to “Ac-CEH[d2Nal]R[2Nal][Aib]CPPKD-NH2 (disulfide 1-8)”, 94.9%. On to “Ac-CEH[dPhe(4-Br)]RWGCPPKD-NH2 (disulfide 1-8)”, for which the “purity (crude or final not stated)” value is 99.9%. Under “Ac-Nle-c(Asp-His-D-2-Nal-Arg-Trp-Lys)-Doc-Doc-Tyr-Gly-Arg-Lys-Lys-Arg-Arg-Gln-Arg-Arg-Arg-NH2” stands 97.1%; under “Ac-Nle-c(Asp-His-D-2-Nal-Arg-Trp-Lys)-Pro-Pro-Lys-Asp-Doc-Tyr-Gly-Arg-Lys-Lys-Arg-Arg-Gln-Arg-Arg-Arg-NH2”, 99.9%.

“Ac-Nle-c(Asp-His-D-2-Nal-Arg-Trp-Lys)-Pro-Pro-Lys-Asp-Tyr-Gly-Arg-Lys-Lys-Arg-Arg-Gln-Arg-Arg-Arg-NH2”: the “purity (crude or final not stated)” value is 99.9%.

Take “Ac-Nle-c(Asp-His-D-2-Nal-Arg-Trp-Lys)-β-Ala-Tyr-Gly-Arg-Lys-Lys-Arg-Arg-Gln-Arg-Arg-Arg-NH2”: the “purity (crude or final not stated)” value is on record as 93.8%.

“Ac-Nle-c(Asp-His-D-2-Nal-Arg-Trp-Lys)-β-Ala-β-Ala-Tyr-Gly-Arg-Lys-Lys-Arg-Arg-Gln-Arg-Arg-Arg-NH2”: the “purity (crude or final not stated)” value came out at 99.9%. To “Ac-Nle-c(Cys-D-Ala-His-D-Phe-Arg-Trp-Cys)-(Doc)2-Tyr-Gly-Arg-Lys-Lys-Arg-Arg-Gln-Arg-Arg-Arg-NH2” belongs 99.9%; to “Ac-Nle-c(Cys-D-Ala-His-D-Phe-Arg-Trp-Cys)-Doc-Tyr-Gly-Arg-Lys-Lys-Arg-Arg-Gln-Arg-Arg-Arg-NH2”, 99.9%.

Consider “Ac-Nle-c(Cys-D-Ala-His-D-Phe-Arg-Trp-Cys)-β-Ala-Arg-Arg-Arg-Arg-Arg-Gln-Arg-Arg-Arg-NH2”, for which the “purity (crude or final not stated)” value was 99.9%. Regarding “Ac-Nle-c(Cys-D-Ala-His-D-Phe-Arg-Trp-Cys)-β-Ala-Arg-Arg-Lys-Arg-Arg-Gln-Arg-Arg-Arg-NH2”, the “purity (crude or final not stated)” value stood at 99.9%. “Ac-Nle-c(Cys-D-Ala-His-D-Phe-Arg-Trp-Cys)-β-Ala-Arg-Lys-Arg-Arg-Arg-Gln-Arg-Arg-Arg-NH2”: the “purity (crude or final not stated)” value worked out at 99.9%. Turning to “Ac-Nle-c(Cys-D-Ala-His-D-Phe-Arg-Trp-Cys)-β-Ala-Gly-Arg-Arg-Arg-Arg-Arg-Gln-Arg-Arg-Arg-Arg-NH2”, the “purity (crude or final not stated)” value worked out at 99.9%. “Ac-Nle-c(Cys-D-Ala-His-D-Phe-Arg-Trp-Cys)-β-Ala-Gly-Arg-Arg-Arg-Arg-Arg-Gln-Arg-Arg-Arg-NH2”: the “purity (crude or final not stated)” value is on record as 99.9%. Take “Ac-Nle-c(Cys-D-Ala-His-D-Phe-Arg-Trp-Cys)-β-Ala-Gly-Arg-Arg-Lys-Arg-Arg-Gln-Arg-Arg-Arg-NH2”: the “purity (crude or final not stated)” value is recorded as 99.9%. To “Ac-Nle-c(Cys-D-Ala-His-D-Phe-Arg-Trp-Cys)-β-Ala-Gly-Arg-Lys-Arg-Arg-Arg-Gln-Arg-Arg-Arg-NH2” belongs 99.9%; to “Ac-Nle-c(Cys-D-Ala-His-D-Phe-Arg-Trp-Cys)-β-Ala-Tyr-Gly-Arg-Arg-Arg-Arg-Arg-Gln-Arg-Arg-Arg-NH2”, 99.0%. To “Ac-Nle-c(Cys-D-Ala-His-D-Phe-Arg-Trp-Cys)-β-Ala-Tyr-Gly-Arg-Arg-Lys-Arg-Arg-Gln-Arg-Arg-Arg-NH2” belongs 99.9%; to “Ac-Nle-c(Cys-D-Ala-His-D-Phe-Arg-Trp-Cys)-β-Ala-Tyr-Gly-Arg-Lys-Arg-Arg-Arg-Gln-Arg-Arg-Arg-NH2”, 98.8%.

In the case of “Ac-Nle-c(Cys-D-Ala-His-D-Phe-Arg-Trp-Cys)-β-Ala-Tyr-Gly-Arg-Lys-Lys-Arg-Gln-Arg-Arg-Arg-Arg-NH2”, the “purity (crude or final not stated)” value came out at 99.9%.

For “Ac-c(Cys-Glu-His-D-2-Nal-Arg-1-Nal-Ala-Cys)-Pro-Pro-Lys-Asp-β-Ala-Arg-Arg-Arg-Arg-Arg-Arg-Gln-Arg-Arg-Arg-NH2”, the “purity (crude or final not stated)” value is reported as 99.9%.

With “Ac-c(Cys-Glu-His-D-2-Nal-Arg-1-Nal-Ala-Cys)-Pro-Pro-Lys-Asp-β-Ala-Arg-Arg-Arg-Arg-Arg-Gln-Arg-Arg-Arg-NH2”, the “purity (crude or final not stated)” value is reported as 99.9%. As to “Ac-c(Cys-Glu-His-D-2-Nal-Arg-1-Nal-Ala-Cys)-Pro-Pro-Lys-Asp-β-Ala-Arg-Arg-Lys-Arg-Arg-Gln-Arg-Arg-Arg-NH2”, the “purity (crude or final not stated)” value came out at 99.9%. Turning to “Ac-c(Cys-Glu-His-D-2-Nal-Arg-1-Nal-Ala-Cys)-Pro-Pro-Lys-Asp-β-Ala-Arg-Lys-Arg-Arg-Arg-Gln-Arg-Arg-Arg-NH2”, the “purity (crude or final not stated)” value is 99.9%.

Turning to “Ac-c(Cys-Glu-His-D-2-Nal-Arg-1-Nal-Ala-Cys)-Pro-Pro-Lys-Asp-β-Ala-Tyr-Gly-Arg-Arg-Lys-Arg-Arg-Gln-Arg-Arg-Arg-NH2”, the “purity (crude or final not stated)” value came out at 99.9%. “Ac-c(Cys-Glu-His-D-2-Nal-Arg-1-Nal-Ala-Cys)-Pro-Pro-Lys-Asp-β-Ala-Tyr-Gly-Arg-Lys-Arg-Arg-Arg-Gln-Arg-Arg-Arg-NH2”: the “purity (crude or final not stated)” value was 99.9%. Under “Ac-c(Cys-Glu-His-D-2-Nal-Arg-1-Nal-Ala-Cys)-Pro-Pro-Lys-Asp-β-Ala-Tyr-Gly-Arg-Lys-Lys-Arg-Arg-Gln-Arg-Arg-Arg-NH2” stands 99.0%.

In the case of “Ac-c(Cys-Glu-His-D-2-Nal-Arg-2-Nal-Ala-Cys)-Pro-Pro-Lys-Asp-β-Ala-Arg-Arg-Arg-Arg-Arg-Arg-Gln-Arg-Arg-Arg-NH2”, the “purity (crude or final not stated)” value came to 99.9%. For the substance “Ac-c(Cys-Glu-His-D-2-Nal-Arg-2-Nal-Ala-Cys)-Pro-Pro-Lys-Asp-β-Ala-Arg-Arg-Arg-Arg-Arg-Gln-Arg-Arg-Arg-NH2”, the “purity (crude or final not stated)” value turned out to be 99.9%.

On to “Ac-c(Cys-Glu-His-D-2-Nal-Arg-2-Nal-Ala-Cys)-Pro-Pro-Lys-Asp-β-Ala-Arg-Arg-Lys-Arg-Arg-Gln-Arg-Arg-Arg-NH2”, for which the “purity (crude or final not stated)” value is reported as 99.9%.

“Ac-c(Cys-Glu-His-D-2-Nal-Arg-2-Nal-Ala-Cys)-Pro-Pro-Lys-Asp-β-Ala-Arg-Lys-Arg-Arg-Arg-Gln-Arg-Arg-Arg-NH2”: the “purity (crude or final not stated)” value was determined as 99.2%. As to “Ac-c(Cys-Glu-His-D-2-Nal-Arg-2-Nal-Ala-Cys)-Pro-Pro-Lys-Asp-β-Ala-Gly-Arg-Arg-Lys-Arg-Arg-Gln-Arg-Arg-Arg-NH2”, the “purity (crude or final not stated)” value worked out at 99.9%. For the substance “Ac-c(Cys-Glu-His-D-2-Nal-Arg-2-Nal-Ala-Cys)-Pro-Pro-Lys-Asp-β-Ala-Gly-Arg-Lys-Arg-Arg-Arg-Gln-Arg-Arg-Arg-NH2”, the “purity (crude or final not stated)” value was found to be 99.9%. “Ac-c(Cys-Glu-His-D-2-Nal-Arg-2-Nal-Ala-Cys)-Pro-Pro-Lys-Asp-β-Ala-Tyr-Gly-Arg-Arg-Lys-Arg-Arg-Gln-Arg-Arg-Arg-NH2”: the “purity (crude or final not stated)” value was found to be 99.9%. Under “Ac-c(Cys-Glu-His-D-2-Nal-Arg-2-Nal-Ala-Cys)-Pro-Pro-Lys-Asp-β-Ala-Tyr-Gly-Arg-Lys-Arg-Arg-Arg-Gln-Arg-Arg-Arg-NH2” stands 99.45%; under “Ac-c(Cys-Glu-His-D-2-Nal-Arg-Bal-Ala-Cys)-Pro-Pro-Arg-Asp-β-Ala-Arg-Arg-Arg-Arg-Arg-Arg-Gln-Arg-Arg-Arg-NH2”, 99.9%. To “Ac-c(Cys-Glu-His-D-2-Nal-Arg-Bal-Ala-Cys)-Pro-Pro-Arg-Asp-β-Ala-Arg-Arg-Arg-Arg-Arg-Gln-Arg-Arg-Arg-NH2” belongs 99.1%; to “Ac-c(Cys-Glu-His-D-2-Nal-Arg-Bal-Ala-Cys)-Pro-Pro-Lys-Asp-β-Ala-Arg-Arg-Arg-Arg-Arg-Arg-Gln-Arg-Arg-Arg-NH2”, 99.9%. Regarding “Ac-c(Cys-Glu-His-D-2-Nal-Arg-Bal-Ala-Cys)-Pro-Pro-Lys-Asp-β-Ala-Arg-Arg-Arg-Arg-Arg-Gln-Arg-Arg-Arg-NH2”, the “purity (crude or final not stated)” value came out at 99.9%. For “Ac-c(Cys-Glu-His-D-2-Nal-Arg-Bal-Ala-Cys)-Pro-Pro-Lys-Asp-β-Ala-Arg-Arg-Lys-Arg-Arg-Gln-Arg-Arg-Arg-NH2”, the “purity (crude or final not stated)” value turned out to be 99.9%. In the case of “Ac-c(Cys-Glu-His-D-2-Nal-Arg-Bal-Ala-Cys)-Pro-Pro-Lys-Asp-β-Ala-Arg-Lys-Arg-Arg-Arg-Gln-Arg-Arg-Arg-NH2”, the “purity (crude or final not stated)” value stood at 99.9%. Consider “Ac-c(Cys-Glu-His-D-2-Nal-Arg-Bal-Ala-Cys)-Pro-Pro-Lys-Asp-β-Ala-Gly-Arg-Arg-Arg-Arg-Arg-Gln-Arg-Arg-Arg-NH2”, for which the “purity (crude or final not stated)” value is reported as 99.9%.

As for “Ac-c(Cys-Glu-His-D-2-Nal-Arg-Bal-Ala-Cys)-Pro-Pro-Lys-Asp-β-Ala-Gly-Arg-Arg-Lys-Arg-Arg-Gln-Arg-Arg-Arg-NH2”, the “purity (crude or final not stated)” value stood at 99.9%. For “Ac-c(Cys-Glu-His-D-2-Nal-Arg-Bal-Ala-Cys)-Pro-Pro-Lys-Asp-β-Ala-Gly-Arg-Lys-Arg-Arg-Arg-Gln-Arg-Arg-Arg-NH2”, the “purity (crude or final not stated)” value came to 99.90%. Under “Ac-c(Cys-Glu-His-D-2-Nal-Arg-Bal-Ala-Cys)-Pro-Pro-Lys-Asp-β-Ala-Tyr-Aib-Arg-Lys-Lys-Arg-Arg-Gln-Arg-Arg-Arg-NH2” stands 99.0%; under “Ac-c(Cys-Glu-His-D-2-Nal-Arg-Bal-Ala-Cys)-Pro-Pro-Lys-Asp-β-Ala-Tyr-Gly-Arg-Arg-Lys-Arg-Arg-Gln-Arg-Arg-Arg-NH2”, 99.9%; under “Ac-c(Cys-Glu-His-D-2-Nal-Arg-Bal-Ala-Cys)-Pro-Pro-Lys-Asp-β-Ala-Tyr-Gly-Arg-Lys-Arg-Arg-Arg-Gln-Arg-Arg-Arg-NH2”, 99.9%. Regarding “Ac-c(Cys-Glu-His-D-2-Nal-Arg-Bal-Ala-Cys)-Pro-Pro-Lys-Asp-β-Ala-Tyr-Gly-Arg-Lys-Lys-Arg-Arg-Gln-Arg-Arg-Arg-NH2”, the “purity (crude or final not stated)” value stood at 99.0%.

These data come from patent US20090232838A1 (priority 2005, published 2009).
